Reference: PubChem BioAssay (Tox21)
“And” between values parts separate entries of the source, which are not always exact repeats. Identical values can stand only once. Inconclusive means that the source gave no clear call. Such entries were picked first, then a sample of the others. Potencies beside an inconclusive call are fits to weak or partial responses and may not hold up. The source made the active and inactive calls. The call rests on the fitted dose curve.

By UniProt entry, the sequences of proteins in these tests, tags left out. Where a name states a change or a piece, a line headed by the entry shows the natural chain unless it says otherwise.
UniProt P19793: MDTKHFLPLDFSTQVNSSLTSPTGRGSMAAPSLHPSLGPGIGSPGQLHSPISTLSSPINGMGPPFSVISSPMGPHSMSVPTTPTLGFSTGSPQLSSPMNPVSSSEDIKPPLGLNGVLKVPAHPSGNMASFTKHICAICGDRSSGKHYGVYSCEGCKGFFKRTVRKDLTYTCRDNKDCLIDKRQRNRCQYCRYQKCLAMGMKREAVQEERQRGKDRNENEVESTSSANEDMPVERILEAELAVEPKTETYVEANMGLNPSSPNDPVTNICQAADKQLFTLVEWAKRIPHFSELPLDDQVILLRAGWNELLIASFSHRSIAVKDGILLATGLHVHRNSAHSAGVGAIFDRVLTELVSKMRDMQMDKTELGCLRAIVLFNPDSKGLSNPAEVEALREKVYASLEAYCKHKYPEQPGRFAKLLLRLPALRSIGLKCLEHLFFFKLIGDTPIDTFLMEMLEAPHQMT

Target: Retinoic acid receptor RXR-alpha (Homo sapiens) (UniProt P19793)
Experiment: qHTS assay to identify small molecule agonists of the RXR signaling pathway (AID 1159527); further: nearly all actives have a fitted effect of over 35% in size
Conditions: HEK293T RXRa-UAS-bla, beta-lactamase ratio, 16 h; activation: at 76.8 µM (top of the series) unless noted
In short: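 qHTS of the Tox21 10K library in GeneBLAzer RXR-alpha HEK 293T cells carrying a beta-lactamase reporter […]; 16 hr treatment, 9-cis retinoic acid as agonist control, FRET read-out.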
On the % scale 0 is the no-effect control and ±100 the full control effect; potency means the concentration at half of the fitted maximal effect.

Row | SMILES | activation | Potency
1 | CCC(C)OC(=O)N1CCCCC1CCO (configuration not stated) | inconclusive: 12.7% | –
2 | Fc1ccccc1-c1ccccc1 | inactive: -2.31% | –
3 | CC1CCCCC1 | inactive: -1.56% | –
4 | Cn1cccc1 | inactive: -0.317% | –
5 | CC(COC(C)(C)C)OCCCO (configuration not stated) | – | active: 11 µM
6 | CCCCCCCCCCCC(=O)N(C)CC(=O)O | – | inconclusive: 47.4 µM
7 | O=C(CO)[C@@H](O)[C@H](O)[C@H](O)CO | inactive: 0.558% | –
8 | CC(C)C/C=C(\C=O)c1ccccc1 | inconclusive: -22.4% | –
9 | Cc1cccc2c1ccc1ccccc12 | inactive: 0.248% | –
10 | CCc1c(C)cc(N)c(CC)c1N | inactive: 0.896% | –
11 | CC1(C)C(=O)NC(=O)N1CO | inconclusive: 16.7% | –
12 | c1ccc(Oc2ccccc2)cc1 | – | inactive and inconclusive: 24.5 µM [activator, full curve, poor fit]
13 | CN(C)C(=O)NC1(c2ccccc2)CCN(CC[C@@]2(c3ccc(F)c(F)c3)CN(C(=O)c3ccccc3)CCO2)CC1 | inconclusive: -30.2% | –
14 | O=c1[nH]c(=O)c2cn[nH]c2[nH]1 | inactive: -1.46% | –
15 | CC(C)=CCCC(C)C=O (configuration not stated) | inconclusive: 18.8% | –
16 | C1CCCNCCC1 | inactive: 7.19% | –
17 | Cn1nnc2c(C(N)=O)ncn2c1=O | inactive: -1.13% [at 35.3 µM] | –
18 | CCc1cnc(C(=O)O)c(C(=O)O)c1 | – | inconclusive: 50.8 µM [activator, partial curve]
19 | CCCCC(CC)C(=O)OCCOCCOCCOCCOC(=O)C(CC)CCCC (configuration not stated) | inconclusive: -30.2% | –
20 | CC(O)CNCC(C)O (configuration not stated) | inconclusive: -27% | –
21 | Cc1ccc2ccc(Cl)cc2n1 | inactive: 7.5% [at 35.3 µM] | –
22 | c1ccc2cnncc2c1 | inactive: -1.82% | –
